The whole screen tested about 52,000 sequences, of which about 210 (0.4%) were called active.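 The calls were made as follows: active = gene whose silencing raises cell survival under the drug, median off-target-corrected z-score across its silencing RNAs 2 or more; inactive = the rest.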 The list shows a part of the results.
Experiment: Resistance to Poly (ADP-Ribose) Polymerase inhibitor: Gene Identification via Genome-wide siRNA Screen
Details: mouse BRCA2 R2336H ES cells, olaparib, CellTiter-Glo viability; stronger effect = higher value
How it was run: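 Mouse BRCA2 R2336H ES cells were reverse-transfected with siRNA (20 nM final), treated at 48 h with 500 nM olaparib, and read by CellTiter-Glo after 72 h. Scores: MAD-based z per siRNA, median per gene, seed off-target correction.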
In the case of GUUCAAGCAGAGGCAGACUTT against Pde6h, the z-score is reported as inactive: 1.35. With CCUAAAAGACUUUGGAGACTT against Arg2 the z-score was inactive: -0.481. For GGCAUCUCCCACAUUAGAGTT against Sell, the z-score was inactive: 0.538. In the case of “GCUGUGUGCUAUUUCCCACTT against 2810417J12Rik”, the z-score is reported as inactive: 2.12. In the case of “GGAUCGGCUAGCUUUGAGCTT against 1810026J23Rik”, the z-score is reported as inactive: -0.17. For “GGAGUCUGCUGGUUUAGUGTT against 1110001J03Rik”, the z-score was inactive: 1.16. With GGCAAAAGACUGGUUUUGUTT against Nr2f2 the z-score was inactive: 1.01. With GGAAGACUUGGCUACACAATT against Rab40c the z-score was inactive: -0.131. With “GGACCUCAAAGACAACCGGTT against 2410018C20Rik” the z-score was inactive: 0.964. In the case of CCUCCUCUCUUACUACGAGTT against Nab2, the z-score is reported as inactive: 0.194. With GCUAAUUUCUUGAGAAGCGTT against Dek the z-score was inactive: 0.0835. For GGAGUGACACUAUUGGGAATT against LOC330776, the z-score was inactive: -1.47. In the case of “GGCAAGACUAUGAAUAUAATT against 1810047C23Rik”, the z-score is reported as inactive: -0.686. For “GGGCAUUUGUGAAAGAACUTT against C130032J12Rik”, the z-score was inactive: 0.683. For GGAACACCAUAUGAAGGCGTT against Ube2h, the z-score was inactive: -0.245. For GCUGCUGAAUUGAAUCAUCTT against Krtap4-7, the z-score was inactive: 0.554. In the case of GGGUUGUCCUGAACUUUAATT against Npr1, the z-score is reported as inactive: -0.454. With GCCUAGGGUUUCUGAAAUGTT against Rpe the z-score was inactive: 0.601. In the case of “GCAAGUGUGGUUAAUCUGCTT against A930021O22”, the z-score is reported as inactive: 1. In the case of “GGACACUUUACUUUUGAGATT against 4930404J24Rik”, the z-score is reported as inactive: 0.147. With “GGCACAUUCAUAGAACAAGTT against 1700022C21Rik” the z-score was inactive: 0.191. In the case of GGAGCAAUGUGUUUUCUCUTT against Ppnr, the z-score is reported as inactive: 0.747. For CCUCGUCUUAUUGAGGCUCTT against Dhrs1, the z-score was inactive: 0.15. For GCCAAUUAGCAUAUUUCAUTT against Slc16a4, the z-score was inactive: 0.0709. For GGAGCCUAUACUGAUUUAUTT against Tomm7, the z-score was inactive: 0.467. In the case of GGUAUGAUCAAUGACUUACTT against Serpine1, the z-score is reported as inactive: -0.786. With GGUUUGCUUUUCGUAUCUATT against Ppp3r1 the z-score was inactive: -0.147. With “GGAUGAAGGCUUCUCUGCUTT against 1700023M09Rik” the z-score was inactive: -1.93. For “GCCCUCAUCAAUUCAACCCTT against F730023N20”, the z-score was inactive: 1.23. In the case of GCAAAUCAGUCUAUCGCUGTT against Mcpt8, the z-score is reported as inactive: -0.725. With “GCAUUUGAAAUAUUCGCUATT against 4933439A12Rik” the z-score was inactive: 1.2. With “GGUACACACGGACAAACGCTT against D9Ertd280e” the z-score was inactive: -0.485. With GCUAGAACAGAAAAGAACCTT against Kcnb1 the z-score was inactive: -0.0625. In the case of GGAGCGAUCUGAAAAUUUGTT against Rasip1, the z-score is reported as inactive: 1.29. With “CCGACUAAGAAUCAGAGAATT against 2700091N06Rik” the z-score was inactive: 0.591. In the case of GGGUGACAUGGUGACCAUCTT against Matk, the z-score is reported as inactive: 0.0832. In the case of GGAACUAGAGCUGAUAAUATT against Smurf1, the z-score is reported as inactive: -0.727. In the case of GCAACUAUAGUGCUCUCACTT against Ggtl3, the z-score is reported as inactive: -0.414. For “GGGUCAGACAGGUAUUAUATT against Cocoacrisp”, the z-score was inactive: 1.43. In the case of GGAGCUGCUCCCUCUAAUATT against Cbr1, the z-score is reported as inactive: 2.41. In the case of GGAGGUGGAACUGCUGUAUTT against BC064033, the z-score is reported as inactive: 0.49. In the case of “CCCAGACAUAUUUUACUCGTT against C230043N17Rik”, the z-score is reported as inactive: -0.763. With “CCAGGUGACACCCAUCAUUTT against 0710001P18Rik” the z-score was inactive: -0.673. In the case of CCCACUCCAAACAUCUAAATT against Gadd45b, the z-score is reported as inactive: 0.111. With GGCUUUAUCCUGUCUGUGGTT against Slc10a2 the z-score was inactive: -1.53. For GGAAGUUGAUGAAUUCUUATT against Raet1a, the z-score was inactive: -0.207. With “GGUUUUCUGGAAGUACUUGTT against 4931427F14Rik” the z-score was inactive: 1.72. In the case of GGUUGGUGCUGGCUAACAUTT against Gabra2, the z-score is reported as inactive: 1.55. With GGAUAACACCGCCAUUCCATT against Csnk the z-score was inactive: -1.31. For GGAGUUCAACUAGAUGUGGTT against Bcl2l13, the z-score was inactive: 1.55. For GGUAUUUCACUGGAAGACUTT against Dnmt2, the z-score was inactive: 1.5. In the case of GGCACUCAGUAACUGCAUGTT against Gababrbp, the z-score is reported as inactive: -0.611. With “GGCUGUUACAAGAACGUAGTT against 5031434C07Rik” the z-score was inactive: 0.0532. In the case of GGAAUAAAUGUCGUCCCUUTT against Mlp, the z-score is reported as inactive: -1.33. For CCAGUAGCAGAUCAACUCATT against Mad, the z-score was inactive: -1.37. For “CCCUGCAUUGCCUUAUAUCTT against 2610318G18Rik”, the z-score was inactive: 0.555. For “GGAUUAUGGACCUCUUGGUTT against 4930595M18Rik”, the z-score was inactive: -0.329. With GCUGUAAAGUAAGUGUAGUTT against BC016198 the z-score was inactive: 0.307. In the case of CCCGAUGAGAGACAUUUUATT against Rrm2, the z-score is reported as inactive: -3.16. With GCGAAAGAUAUUGUGGAAGTT against Dixdc1 the z-score was inactive: -0.7. With GAGUAGGAAUUAGAAUGAUTT against Tm4sf10 the z-score was inactive: 0.000742. In the case of GGGCCAACCAACGAAAUGUTT against Ube1y1, the z-score is reported as inactive: -2.32. For GCUCUAUUCUCCAACUCUGTT against Pof1b, the z-score was inactive: -0.364. In the case of GGGUGCUUAAUAAACAUAATT against Slc22a8, the z-score is reported as inactive: 1.12. For GGUACUCAAGGUAGGCUGCTT against Oasl1, the z-score was inactive: -0.501. With GCAUGCCUAAAUUUGGGACTT against Fyb the z-score was inactive: -0.685. For “GGCAAAGCUGUCUUAGAGGTT against 1110005A03Rik”, the z-score was inactive: 0.34. For GGAUAAUGUGGAUAGAACUTT against Slco1a5, the z-score was inactive: 0.845. In the case of CGGCUACAACACAUACGCCTT against Fgf22, the z-score is reported as inactive: -0.355. In the case of “GGCUUUUGGAGAAAAAGGATT against D10Ertd438e”, the z-score is reported as inactive: 1.18. With “GGGCAAAAUAUGAAAUACATT against D730048I06Rik” the z-score was inactive: -0.664. In the case of CCCUGUAAAGAUCGAGAAGTT against Zfp296, the z-score is reported as inactive: 1.01. In the case of GGUCAAGACAAUCUGAUCATT against Siat6, the z-score is reported as inactive: 1.65. With GGAAACACCUAUCUUCUGGTT against Npdc1 the z-score was inactive: 0.591. For GGCAAUGGUUCAGCAGUGGTT against Eef1e1, the z-score was inactive: -0.219. With GGUUCCUCUUGUGAGUGCCTT against Tm7sf1 the z-score was inactive: -0.814. For CCUCUUCACUAUAGCACUCTT against Olfr1019, the z-score was inactive: 0.42. For “GGGAUAGGCUUAAACUCAUTT against 4930569K13Rik”, the z-score was inactive: -0.0564. In the case of GGAUUAAACCAUUAACUGCTT against Stdp1, the z-score is reported as inactive: -0.349. For GGAUAUUGGUGGCACUUUATT against Med6, the z-score was inactive: 0.125. In the case of CCCAAUUCAGGUUUUUAACTT against Midn, the z-score is reported as inactive: 0.524. For GCUGGUAUACGAGACCGUATT against Fshb, the z-score was inactive: 0.127. In the case of GCUCUGCUAUCGUGAUCUGTT against Kctd13, the z-score is reported as inactive: -1.44. In the case of “GCCCAGUCUUCUGAUGAACTT against 2400006N03Rik”, the z-score is reported as inactive: 0.284. In the case of GGUCCUACAUCUCCUUCGATT against Cars, the z-score is reported as inactive: -2.9. In the case of GCUAUUCAAUGGACCAGAATT against Olfr490, the z-score is reported as inactive: -2.5. In the case of CCAGAUGCAUCAAAAUUUUTT against Tbc1d15, the z-score is reported as inactive: 0.242. For GGCCAGCAAAUUCAAAUCATT against Sp4, the z-score was inactive: 0.133. With GGCUAUUGUACAACUUAUATT against Pafah1b2 the z-score was inactive: 0.135. In the case of GGUUAAUUGUCGACUAGACTT against Pcdhgb5, the z-score is reported as inactive: -0.646. With GGUUUUCUACUUCUCAAUUTT against Sec61g the z-score was inactive: 1.4. With GGUAAUUUUGAAUGUGGCATT against Lemd2 the z-score was inactive: 1.54. In the case of “GGGACACUUGGACUUUAUATT against 2310020A21Rik”, the z-score is reported as inactive: -0.511. For GCUAAUCUAUCCGUGUCCUTT against B3gnt3, the z-score was inactive: 0.175. With “GCUAGAUCCAUCCAUAUAGTT against 9130017N09Rik” the z-score was inactive: -1.64. For GCGGAUGUUGAAAUGUUUATT against Shprh, the z-score was inactive: 0.162. With UGCAACUGUUCAGAUUCUGTT against Olfr149 the z-score was inactive: -0.476. For GGAAGAAAUGUUUUUUGGUTT against Hivep2, the z-score was inactive: -0.609. In the case of GGUAUUGGAUAACAGAAUUTT against Rasgrp1, the z-score is reported as inactive: 1.05. With GGAGAGCUCUAUGGAUCGATT against Fgf16 the z-score was inactive: -0.2. In the case of CCCGGAUCUGAAAACUGAUTT against Capns1, the z-score is reported as inactive: -0.967. For GGGACAGAUACUUCAGAAGTT against Kcnv1, the z-score was inactive: -0.937. In the case of GGCUGCUGUCAUUAUUUGUTT against Terf2, the z-score is reported as inactive: 2.28.
